The results in this text go back to patent US20230330051A1, “METHOD FOR MODULATING WEIGHT” (Yeda Research and Development Co. Ltd., priority 2020, published 2023).

Data set [1] in a line: Serum metabolomic profiling of smoking and non-smoking mice with or without antibiotics (linear mixed model). It is filed as in vivo. The note with it: serum metabolite level in smoking vs non-smoking mice.
The nature of data set [2]: Metabolic cage analysis of DMG- or PBS-supplemented mice. It is filed as in vivo, C57BL/6J male mice. The note with it: DMG- vs PBS-supplemented mice, metabolic cages, 172 hours.
Data set [3] can be described thus: Targeted mass spectrometry of serum metabolites in mice. It is filed as in vivo. The note with it: targeted MS, smoking vs non-smoking and antibiotics-treated smoking mice.

Regarding `CCCCC/C=C\C/C=C\C/C=C\CCCCC(=O)O[C@H](COC(=O)CCCCCCCCCCCCCCC)COP(=O)([O-])OCC[N+](C)(C)C` [1-palmitoyl-2-gamma-linolenoyl-GPC (16:0/18:3n6)], in data set [1], the SMK/NS direction result is reported as “Decreased”.
On to `CN(C)CC(=O)O` [DMG, N,N-Dimethylglycine], for which, in data set [2], the Energy expenditure result is “comparable”, the Locomotion activity result is reported as “comparable”, the RER entry is on record as “comparable” and the Total caloric uptake entry was “comparable”. The SMK/NS direction entry in data set [1] is “Increased”. The “Serum levels in smoking mice” value in data set [3] is given as “higher”.
Turning to `CCCCCC(=O)NCC(=O)O` [Hexanoylglycine], the SMK/NS direction result in data set [1] is “Decreased”.
For `C[N+](C)(C)CC(=O)O` [betaine], the “Serum levels in smoking mice” value in data set [3] was “higher”.
For hexadecadienoate (16:2n6), the SMK/NS direction result in data set [1] is given as “Decreased”.
